# Measured values published in patent US4145337A (Hoffmann-La Roche Inc., priority 1977, dated 1979).
# HELM strings list residues between dots; [ac] is acetyl, [am] amide, other brackets name non-standard units.
# How the values were obtained:
# [1] = general procedure: peptide synthesis; hydroxymethyl resin made from 1% cross-linked chloromethylated polystyrene-divinylbenzene resin (200-400 mesh); 0.90 mmol; DCC (symmetrical anhydride method); azide and N-hydroxysuccinimide ester couplin; conditions: for oxidative folding yield: oxidative folding step
# [2] = Boc solid-phase peptide synthesis; Aeg(Z)-hydroxymethyl resin; DCC (symmetrical anhydride method); azide and N-hydroxysuccinimide ester couplin; conditions: whole synthesis
# [3] = Boc solid-phase peptide synthesis; hydroxymethyl resin; DCC (symmetrical anhydride method); azide and N-hydroxysuccinimide ester couplin; conditions: whole synthesis
substance,measurement,setting,value
"PEPTIDE1{[Aeg].C.K.N.F.F.[dW].K.T.F.T.S.C}$PEPTIDE1,PEPTIDE1,2:R3-13:R3$$$V2.0",oxidative folding yield,[1],44.7%
Aminoethylglycyl-L-cysteinyl-L-lysyl-L-asparaginyl-L-phenylalanyl-L-phenylalanyl-D-tryptophyl-L-lysyl-L-threonyl-L-phenylalanyl-L-threonyl-L-seryl-L-cysteinyl-aminoethylglycine,crude mass,[2]; scale 0.734 mmole,1.09 g
Cyclo [Aminoethylglycyl-L-lysyl-L-asparaginyl-L-phenylalanyl-L-phenylalanyl-L-tryptophyl-L-lysyl-L-threonyl-L-phenylalanyl-L-threonyl-L-seryl],step yield,[1]; late stage modification step,30.7%
Aminoethylglycyl-aminoethylglycyl-L-cysteinyl-L-lysyl-L-asparaginyl-L-phenylalanyl-L-phenylalanyl-D-tryptophyl-L-lysyl-L-threonyl-L-phenylalanyl-L-threonyl-L-seryl-L-cysteine(oxidized form),oxidative folding yield,[1]; on reduced linear peptide,62%
PEPTIDE1{[Aeg].C.K.N.F.F.[dW].K.T.F.T.S.C}$$$$V2.0,crude mass,[3]; scale 0.773 mmole,0.773 g
N-[2-(p-Biphenylyl)-2-propyloxycarbonyl]-L-tryptophyl-N^ε -t-butyloxycarbonyl-L-lysyl-O-t-butyl-L-threonyl-L-phenylalanyl-O-t-butyl- L-threonyl-O-t-butyl-L-serine hydrazide,step yield,[1]; late stage modification step,88.2%
N-α-Benzyloxycarbonyl-N-ε-t-butyloxycarbonyl-L-lysyl-L-asparaginyl-L-phenylalanyl-L-phenylalanyl-L-tryptophyl-N-ε-t-butyloxycarbonyl-L-lysyl-O-t-butyl-L-threonyl-L-phenylalanyl-O-t-butyl-L-threonyl-O-t-butyl-L-serine methyl ester,step yield,[1]; coupling step,73.1%
N-ε-t-Butyloxycarbonyl-L-lysyl-L-asparaginyl-L-phenylalanyl-L-phenylalanyl-L-tryptophyl-N-ε-t-butyloxycarbonyl-L-lysyl-O-t-butyl-L-threonyl-L-phenylalanyl-O-t-butyl-L-threonyl-O-t-butyl-L-serine methyl ester,step yield,[1]; late stage modification step,67.2%
PEPTIDE1{[Aeg].C.K.N.F.F.W.K.T.F.T.S.C}$$$$V2.0,step yield,[1]; late stage modification step,41.9%
PEPTIDE1{[Aeg].[Aeg].C.K.N.F.F.W.K.T.F.T.S.C}$$$$V2.0,step yield,[1]; late stage modification step,36.5%
L-Cysteinyl-L-lysyl-L-asparaginyl-L-phenylalanyl-L-phenylalanyl-D-tryptophyl-L-lysyl-L-threonyl-L-phenylalanyl-L-threonyl-L-seryl-L-cysteinyl-aminoethylglycine,crude mass,[2]; scale .734 mmol,0.906 g
L-tryptophyl-N^ε-t-butyloxycarbonyl-L-lysyl-O-t-butyl-L-threonyl-L-phenylalanyl-O-t-butyl-L-seryl-S-acetamidomethyl-L-cysteine,step yield,[1]; late stage modification step,75.2%
Aminoethylglycyl-aminoethylglycyl-L-cysteinyl-L-lysyl-L-asparaginyl-L-phenylalanyl-L-phenylalanyl-D-tryptopyl-L-lysyl-L-threonyl-L-phenylalanyl-L-threonyl-L-seryl-L-cysteine,crude mass,[3]; scale .773 mmol,0.915 g
N-[2-(p-Biphenylyl)-2-propyloxycarbonyl]-S-acetamidomethyl-L-cysteinyl-N-ε-t-butyloxycarbonyl-L-lysyl-L-asparaginyl-L-phenylalanyl-L-phenylalanine hydrazide,step yield,[1]; late stage modification step,93.1%
Aminoethylglycyl-L-cysteinyl-L-lysyl-L-asparaginyl-L-phenylalanyl-L-phenylalanyl-L-tryptophyl-L-lysyl-L-threonyl-L-phenylalanyl-L-threonyl-L-seryl-L-cysteinyl-aminoethylglycine,crude mass,[2]; scale 0.734 mmol,1.22 g
L-Tryptophyl-N-ε-t-butyloxycarbonyl-L-lysyl-O-t-butyl-L-threonyl-L- phenylalanyl-O-t-butyl-L-threonyl-O-t-butyl-L-serine methyl ester.multidot.HCl,step yield,[1]; late stage modification step,89.8%
N-[2-(p-Biphenylyl)-2-propyloxycarbonyl]-L-tryptophyl-N^ε -t-butyloxycarbonyl-L-lysyl-O-t-butyl-L-threonyl-L-phenylalanyl-O-t-butyl- L-threonyl-O-t-butyl-L-seryl-S-acetamidomethyl-L-cysteine,step yield,[1]; coupling step,74.8%
Aminoethylglycyl-L-alanyl-glycyl-L-cysteinyl-L-lysyl-L-asparaginyl-L-phenylalanyl-L-phenylalanyl-L-tryptophyl-L-lysyl-L-threonyl-L-phenylalanyl-L-threonyl-L-seryl-L-cysteine,step yield,[1]; late stage modification step,41.7%
N-α-Benzyloxycarbonyl-N^ε -t-butyloxycarbonyl-L-lysyl-L-asparaginyl-L-phenylalanyl-L-phenylalaine methyl ester,step yield,[1]; coupling step,67.0%
N-[2-(p-Biphenylyl)-2-propyloxycarbonyl]-S-acetamidomethyl-L-cysteinyl-N-ε-t-butyloxycarbonyl-L-lysyl-L-asparaginyl-L-phenylalanyl-L-phenylalanine methyl ester,step yield,[1]; coupling step,65.4%
PEPTIDE1{C.K.N.F.F.W.K.T.F.T.S.C.[Aeg]}$$$$V2.0,crude mass,[2]; scale 0.734 mmol,1.09 g
